Results are given in words; binding and its absence hold for the method and conditions named. Binding seen in cells or lysates may run through a third protein. Values belong to the molecule of their own block, whether it stands above or below them.
What was measured:
[1] = target: T1, endogenous CLP1 (human (endogenous in HEK293)) (UniProt Q92989); assay: co-IP; nuclear proteins of Aire-transfected HEK293 cells (Universal Magnetic Co-IP Kit); incubated with anti-CLP1 or Flag-tag M2 antibody for 4 hr, then Protein-G magnetic beads for 1 hr at 4°C; four washes; western blot
T1 sequence: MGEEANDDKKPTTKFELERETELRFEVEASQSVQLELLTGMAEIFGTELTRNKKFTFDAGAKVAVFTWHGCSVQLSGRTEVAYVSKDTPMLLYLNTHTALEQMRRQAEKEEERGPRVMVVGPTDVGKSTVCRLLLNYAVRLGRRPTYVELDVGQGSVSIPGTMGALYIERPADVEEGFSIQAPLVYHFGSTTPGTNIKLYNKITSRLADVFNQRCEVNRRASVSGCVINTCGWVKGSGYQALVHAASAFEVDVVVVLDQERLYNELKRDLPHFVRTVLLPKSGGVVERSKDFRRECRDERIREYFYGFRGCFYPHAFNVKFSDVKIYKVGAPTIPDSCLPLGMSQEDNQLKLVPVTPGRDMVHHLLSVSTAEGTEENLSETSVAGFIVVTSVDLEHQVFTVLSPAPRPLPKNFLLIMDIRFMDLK

Sequences of proteins named here, by UniProt entry; tags and fusion partners are left off.
UniProt Q9Z0E3: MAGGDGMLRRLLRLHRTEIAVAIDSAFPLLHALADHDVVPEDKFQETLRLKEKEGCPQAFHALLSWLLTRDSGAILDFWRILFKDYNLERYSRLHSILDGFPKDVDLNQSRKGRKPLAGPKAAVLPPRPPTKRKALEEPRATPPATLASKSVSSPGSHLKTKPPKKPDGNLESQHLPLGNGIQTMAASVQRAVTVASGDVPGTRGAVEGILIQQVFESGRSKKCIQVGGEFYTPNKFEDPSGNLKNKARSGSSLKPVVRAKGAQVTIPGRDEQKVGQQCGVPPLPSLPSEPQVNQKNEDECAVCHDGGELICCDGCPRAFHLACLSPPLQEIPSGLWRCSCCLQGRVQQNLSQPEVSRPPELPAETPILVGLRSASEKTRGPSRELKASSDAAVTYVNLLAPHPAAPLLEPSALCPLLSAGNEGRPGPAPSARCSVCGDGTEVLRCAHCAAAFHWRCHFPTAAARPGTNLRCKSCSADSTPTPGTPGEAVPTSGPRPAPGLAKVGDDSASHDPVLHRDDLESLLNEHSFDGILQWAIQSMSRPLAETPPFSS

Flag-tagged Aire (mouse) = Flag-tagged Aire (mouse) (UniProt Q9Z0E3); assay: as above

binding [1]: no binding
Molecule: Flag-tagged Aire (from UniProt Q9Z0E3 1-552)

binding (Flag-tagged Aire (mouse)): no binding
B1: endogenous CLP1 (protein, UniProt Q92989 1-425)
chain: T1 sequence

Source: article PMC7205469
